At least one read-out could not be matched to a standard name with certainty.
Tested on: Escherichia coli AB1157
Details: E. coli AB1157; for Levofloxacin MPC2: minimal concentration of test compound that decreases the MIC of levofloxacin by 2 fold; for Levofloxacin MPC4: minimal concentration of test compound that decreases the MIC of levofloxacin by 4 fold; for Levofloxacin MPC8: minimal concentration of test compound that decreases the MIC of levofloxacin by 8 fold; for Piperacillin MPC2: minimal concentration of test compound that decreases the MIC of piperacillin by 2 fold; for Piperacillin MPC4: minimal concentration of test compound that decreases the MIC of piperacillin by 4 fold; for Piperacillin MPC8: minimal concentration of test compound that decreases the MIC of piperacillin by 8 fold

Structure (SMILES)	Levofloxacin MPC2	Levofloxacin MPC4	Levofloxacin MPC8	Piperacillin MPC2	Piperacillin MPC4	Piperacillin MPC8
COCCN1CCN(c2nc(SCCc3ccccc3)c(C#N)c3c2COC(C)(C)C3)CC1 [MBX2741]	≦0.2 μM	6.25 µM	≧12.5 μM	≦0.2 μM	0.4 µM	6.25 µM
COCCN1CCN(c2nc(SCCOc3ccc(Cl)cc3)c(C#N)c3c2COC(C)(C)C3)CC1 [MBX2845]	3.13 µM	≧100 μM	≧100 μM	6.25 µM	25 µM	≧100 μM
COc1ccc(CCSc2nc(N3CCOCC3)c3c(c2C#N)CC(C)(C)OC3)cc1 [MBX3354]	≦1.56 μM	6.25 µM	≧100 μM	0.78 µM	3.13 µM	≧100 μM
CC1(C)Cc2c(C#N)c(SCCc3ccccn3)nc(N3CCOCC3)c2CO1 [MBX2699]	≦1.56 μM	50 µM	≧100 μM	3.125 µM	25 µM	50 µM
COc1ccc(CCSc2nc(N3CCCN(C)CC3)c3c(c2C#N)CC(C)(C)OC3)cc1 [MBX2809]	3.13 µM	50 µM	≧100 μM	3.13 µM	25 µM	≧100 μM
CN1CCCN(c2nc(SC(CO)c3ccccc3)c(C#N)c3c2COC(C)(C)C3)CC1 (stereo not drawn) [MBX2803]	≧100 μM	≧100 μM	≧100 μM	≧100 μM	≧100 μM	≧100 μM
CN1CCCN(c2nc(SCCc3ccccc3F)c(C#N)c3c2COC(C)(C)C3)CC1 [MBX2826]	≦1.56 μM	25 µM	≧100 μM	3.13 µM	12.5 µM	50 µM
CC1CN(c2nc(SCCc3ccc(F)cc3)c(C#N)c3c2COC(C)(C)C3)CC(C)N1 (stereo not drawn) [MBX3262]	≦1.56 μM	12.5 µM	≧100 μM	≦1.56 μM	12.5 µM	≧100 μM
COc1cccc(CCSc2nc(N3CC(C)OC(C)C3)c3c(c2C#N)CC(C)(C)OC3)c1 (stereo not drawn) [MBX2870]	≦1.56 μM	6.25 µM	≧100 μM	≦1.56 μM	≦1.56 μM	6.25 µM
CC1CN(c2nc(SCCc3ccc(NC(=N)N)cc3)c(C#N)c3c2COC(C)(C)C3)CC(C)O1 (stereo not drawn) [MBX3157]	≦0.195 μM	3.13 µM	≧12.5 μM	≦0.195 μM	0.78 µM	3.13 µM
CC1(C)Cc2c(C#N)c(SCCc3ccccc3)nc(N3CCCC3CO)c2CO1 (stereo not drawn) [MBX2847]	6.25 µM	≧100 μM	≧100 μM	6.25 µM	25 µM	≧100 μM
CC1(C)Cc2c(C#N)c(SCCc3ccccc3)nc(N3CCCNCC3)c2CO1 [MBX2453]	≦1.56 μM		≧100 μM	3.13 µM		≧100 μM
CC1(C)Cc2c(C#N)c(N)sc(=S)c2CO1 [MBX2685]	≧100 μM	≧100 μM	≧100 μM	≧100 μM	≧100 μM	≧100 μM
CC1CN(c2nc(SCCc3ccc(NC(=O)C(F)(F)F)cc3)c(C#N)c3c2COC(C)(C)C3)CC(C)O1 (stereo not drawn) [MBX3230]	≦1.56 μM	≦1.56 μM	≧100 μM	≦1.56 μM	≦1.56 μM	≧100 μM
CC1(C)Cc2c(C#N)c(SCCc3ccccc3F)nc(N3CCOCC3)c2CO1 [MBX3347]	≦1.56 μM	≧100 μM	≧100 μM	≦1.56 μM	≦1.56 μM	12.5 µM
CC(C)C1Cc2c(C#N)c(SCCc3ccc(F)cc3)nc(N3CCOCC3)c2CO1 (stereo not drawn) [MBX3324]	≧100 μM	≧100 μM	≧100 μM	≧100 μM	≧100 μM	≧100 μM
CC1CN(c2nc(SCCc3ccc(NC(=O)OC(C)(C)C)cc3)c(C#N)c3c2COC(C)(C)C3)CC(C)N1 (stereo not drawn) [MBX3263]	≦1.56 μM	3.13 µM	≧100 μM	≦1.56 μM	3.13 µM	≧100 μM
COc1cccc(CCSc2nc(N3CCCN(C)CC3)c3c(c2C#N)CC(C)(C)OC3)c1 [MBX2808]	3.13 µM	100 µM	≧100 μM	6.25 µM	25 µM	≧100 μM
COCCN1CCN(c2nc(SCCc3cccc(Br)c3)c(C#N)c3c2COC(C)(C)C3)CC1 [MBX2927]	≦1.56 μM		≧100 μM	≦1.56 μM	≦1.56 μM	6.25 µM
N#Cc1c(SCCc2ccccn2)nc(N2CCOCC2)c2c1CCOC2 [MBX2831]	≧100 μM	≧100 μM	≧100 μM	≧100 μM	≧100 μM	≧100 μM
CN1CCCN(c2nc(SCCc3ccccn3)c(C#N)c3c2COC(C)(C)C3)CC1 [MBX2789]	50 µM	≧100 μM	≧100 μM	≦50 μM	50 µM	≧100 μM
CC(=O)Oc1cccc(CCSc2nc(N3CCOCC3)c3c(c2C#N)CC(C)(C)OC3)c1 [MBX2893]	≦1.56 μM	≦1.56 μM	≧100 μM	≦1.56 μM	≦1.56 μM	6.25 µM
COCCN1CCN(c2nc(SCCC3OCCO3)c(C#N)c3c2COC(C)(C)C3)CC1 [MBX2843]	50 µM	≧100 μM	≧100 μM	25 µM	50 µM	≧100 μM
CC1(C)Cc2c(C#N)c(SCCc3cccc(F)c3)nc(N3CCOCC3)c2CO1 [MBX2864]	≦1.56 μM	≧100 μM	≧100 μM	≦1.56 μM	3.13 µM	≧100 μM
